Laboratory results: article PMC9339965
These are yes or no findings as the source states them, for the method shown. For some of these results: Binding seen in cells or lysates may run through a third protein. Some results given as binding are weak or reduced against the parent protein; the word gives no strength. For some of these results: Sequences can lack the tags named with a protein.

Amino acid sequences for entries named in this document (tags omitted). A change or cut given only in a name is not applied to a line headed by its entry. Chains listed by the source or under a name are the forms on record and can include a tag or linker. Residues count along the entry.
UniProt Q92838: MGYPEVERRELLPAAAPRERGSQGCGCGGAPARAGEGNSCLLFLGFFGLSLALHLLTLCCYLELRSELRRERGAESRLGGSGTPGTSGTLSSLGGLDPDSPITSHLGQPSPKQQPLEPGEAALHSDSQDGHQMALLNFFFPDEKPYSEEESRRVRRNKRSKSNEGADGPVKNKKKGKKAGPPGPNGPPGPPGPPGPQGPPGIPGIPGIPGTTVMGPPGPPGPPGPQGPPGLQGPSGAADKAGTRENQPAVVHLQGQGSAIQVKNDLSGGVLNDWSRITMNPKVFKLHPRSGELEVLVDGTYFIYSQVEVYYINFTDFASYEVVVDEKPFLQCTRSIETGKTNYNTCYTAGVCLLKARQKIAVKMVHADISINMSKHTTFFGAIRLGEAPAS
soluble Flag-EDA, wild type (starting at Ser66): residues 66-391 of Q92838
soluble Flag-EDA1-Arg153Cys (starting at Ser66) (Q92838-1, form named): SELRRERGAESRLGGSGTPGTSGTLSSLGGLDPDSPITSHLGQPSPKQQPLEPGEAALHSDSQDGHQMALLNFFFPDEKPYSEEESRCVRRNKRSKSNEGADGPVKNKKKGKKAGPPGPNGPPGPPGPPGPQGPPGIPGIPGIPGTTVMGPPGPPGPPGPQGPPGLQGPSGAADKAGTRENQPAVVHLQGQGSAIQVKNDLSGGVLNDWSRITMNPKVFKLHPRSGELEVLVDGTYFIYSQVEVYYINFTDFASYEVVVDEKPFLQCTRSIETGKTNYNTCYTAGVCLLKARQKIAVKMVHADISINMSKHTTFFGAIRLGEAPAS
soluble Flag-EDA1-Arg156Cys (starting at Ser66) (Q92838-1, form named): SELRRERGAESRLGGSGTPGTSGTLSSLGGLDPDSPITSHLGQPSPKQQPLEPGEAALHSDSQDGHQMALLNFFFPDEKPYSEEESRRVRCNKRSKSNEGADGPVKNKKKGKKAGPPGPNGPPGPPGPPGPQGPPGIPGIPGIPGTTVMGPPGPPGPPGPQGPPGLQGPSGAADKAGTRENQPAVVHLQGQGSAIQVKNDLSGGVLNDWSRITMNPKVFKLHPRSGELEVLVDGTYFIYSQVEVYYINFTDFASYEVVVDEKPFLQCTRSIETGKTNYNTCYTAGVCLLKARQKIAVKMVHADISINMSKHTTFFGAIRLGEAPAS
soluble Flag-EDA1-Arg156His (starting at Ser66) (Q92838-1, form named): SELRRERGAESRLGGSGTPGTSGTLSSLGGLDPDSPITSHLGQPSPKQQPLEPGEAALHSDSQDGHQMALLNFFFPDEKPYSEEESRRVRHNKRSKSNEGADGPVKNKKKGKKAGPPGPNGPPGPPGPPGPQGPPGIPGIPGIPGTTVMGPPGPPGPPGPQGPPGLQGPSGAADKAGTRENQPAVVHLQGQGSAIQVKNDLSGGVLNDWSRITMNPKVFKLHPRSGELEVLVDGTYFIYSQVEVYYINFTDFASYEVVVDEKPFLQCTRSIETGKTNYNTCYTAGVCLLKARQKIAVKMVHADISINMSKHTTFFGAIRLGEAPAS
soluble Flag-EDA1-Ser125Cys (starting at Ser66) (Q92838-1, form named): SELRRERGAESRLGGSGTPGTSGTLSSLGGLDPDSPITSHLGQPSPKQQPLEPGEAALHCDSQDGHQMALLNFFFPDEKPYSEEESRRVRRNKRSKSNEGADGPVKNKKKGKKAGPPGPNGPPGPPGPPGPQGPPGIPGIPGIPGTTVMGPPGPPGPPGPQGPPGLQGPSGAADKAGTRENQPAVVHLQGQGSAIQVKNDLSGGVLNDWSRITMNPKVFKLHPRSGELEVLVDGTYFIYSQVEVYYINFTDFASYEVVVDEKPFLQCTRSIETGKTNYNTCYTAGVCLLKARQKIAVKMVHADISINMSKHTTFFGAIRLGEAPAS
full-length EDA1-Gly176Val, on HEK 293T cells (Q92838-1, form named): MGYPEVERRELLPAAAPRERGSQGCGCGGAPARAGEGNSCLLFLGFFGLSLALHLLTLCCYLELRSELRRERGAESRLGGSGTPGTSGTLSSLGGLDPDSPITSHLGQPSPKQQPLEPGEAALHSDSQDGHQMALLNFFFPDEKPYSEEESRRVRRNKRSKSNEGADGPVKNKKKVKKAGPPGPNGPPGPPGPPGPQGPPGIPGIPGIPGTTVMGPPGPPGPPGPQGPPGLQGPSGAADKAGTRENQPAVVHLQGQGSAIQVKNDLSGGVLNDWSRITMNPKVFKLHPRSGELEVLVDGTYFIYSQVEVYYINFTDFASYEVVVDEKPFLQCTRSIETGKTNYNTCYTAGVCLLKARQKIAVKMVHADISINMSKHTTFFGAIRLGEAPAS

T1: EDAR-Fc (UniProt Q9UNE0)
T1 sequence: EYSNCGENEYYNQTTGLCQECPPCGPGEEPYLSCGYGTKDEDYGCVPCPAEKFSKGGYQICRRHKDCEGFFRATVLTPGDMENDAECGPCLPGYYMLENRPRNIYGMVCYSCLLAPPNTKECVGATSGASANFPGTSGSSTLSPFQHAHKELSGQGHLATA

B1: EDAR-Fc (Fc fusion, UniProt Q9UNE0 27-187)
chain: T1 sequence

Assays:
[1] = molecular target: soluble Flag-EDA1-Arg153Cys (starting at Ser66) (human) (UniProt Q92838); assay: non-reducing SDS-PAGE and Western blot (inter-chain disulfide bonds); anti-Flag immunoprecipitates of conditioned medium, run without DTT against with DTT; Western blot with anti-Flag M2
EDAR-Fc = molecular target: T1, EDAR-Fc; assay: pull-down; conditioned medium of transfected HEK 293T cells on beads coupled to EDAR-Fc (TACI-Fc beads as control); washed, eluted with 50 mM Na-citrate pH 2.7; Western blot with anti-EDA Renzo-2; the paper calls it co-immunoprecipitation; only the target purified
[2] = molecular target: soluble Flag-EDA1-Arg156Cys (starting at Ser66) (human) (UniProt Q92838); assay: non-reducing SDS-PAGE and Western blot (inter-chain disulfide bonds); anti-Flag immunoprecipitates of conditioned medium, run without DTT against with DTT; Western blot with anti-Flag M2
[3] = molecular target: soluble Flag-EDA1-Ser125Cys (starting at Ser66) (human) (UniProt Q92838); assay: as above
[4] = molecular target: full-length EDA1, wild type, on HEK 293T cells (human) (UniProt Q92838); assay: flow cytometry on cells; HEK 293T cells transfected with full-length EDA (WT or variants), 3 days after transfection; stained in PBS, 5% FCS, 2 mM EDTA, 1 IU/ml liquemin with EDAR-Fc at 50 μg/ml, then phycoerythrin-coupled goat anti-human IgG; read-out geoMFI; only the binder purified
[5] = molecular target: full-length EDA1-Gly176Val, on HEK 293T cells (human) (UniProt Q92838); assay: as above

| Molecule | binding (EDAR-Fc) | also measured |
| --- | --- | --- |
| soluble Flag-EDA1-Arg153Cys (starting at Ser66) (from UniProt Q92838-1 66-391) (ligand) | binds | binding [1]: binds |
| soluble Flag-EDA1-Arg156Cys (starting at Ser66) (from UniProt Q92838-1 66-391) (ligand) | binds | binding [2]: binds |
| soluble Flag-EDA1-Arg156His (starting at Ser66) (from UniProt Q92838-1 66-391) (ligand) | binds |  |
| soluble Flag-EDA1-Ser125Cys (starting at Ser66) (from UniProt Q92838-1 66-391) (ligand) | binds | binding [3]: binds |
| soluble Flag-EDA, wild type (starting at Ser66) (from UniProt Q92838-1 66-391) (ligand) | binds |  |
| B1 |  | binding [4]: binds; binding [5]: binds |
